From patent publication US6544986B2, “Pyridones and their use as modulators of serine hydrolase enzymes” (Dalhousie University, priority 2000, dated 2003)
Some of these results come from one statement about several compounds together.

Amino acid sequences for entries named in this document (tags omitted). Residues count along the entry.
UniProt P06276, 29-602: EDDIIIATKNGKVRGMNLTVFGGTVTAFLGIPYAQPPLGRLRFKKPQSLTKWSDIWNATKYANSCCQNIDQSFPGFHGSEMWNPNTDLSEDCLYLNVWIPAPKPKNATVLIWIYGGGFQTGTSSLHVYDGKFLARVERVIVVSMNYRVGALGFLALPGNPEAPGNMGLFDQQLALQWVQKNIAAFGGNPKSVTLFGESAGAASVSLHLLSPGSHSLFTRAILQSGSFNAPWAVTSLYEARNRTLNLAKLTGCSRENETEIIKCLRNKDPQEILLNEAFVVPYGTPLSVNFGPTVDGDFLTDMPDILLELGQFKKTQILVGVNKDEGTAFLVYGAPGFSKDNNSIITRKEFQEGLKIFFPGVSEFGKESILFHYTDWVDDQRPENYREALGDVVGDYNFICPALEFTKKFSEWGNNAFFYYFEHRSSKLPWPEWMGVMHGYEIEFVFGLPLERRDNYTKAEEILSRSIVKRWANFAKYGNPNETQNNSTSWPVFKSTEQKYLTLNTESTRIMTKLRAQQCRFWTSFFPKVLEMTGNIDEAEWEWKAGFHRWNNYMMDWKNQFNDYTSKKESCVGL
UniProt P22303, 32-614: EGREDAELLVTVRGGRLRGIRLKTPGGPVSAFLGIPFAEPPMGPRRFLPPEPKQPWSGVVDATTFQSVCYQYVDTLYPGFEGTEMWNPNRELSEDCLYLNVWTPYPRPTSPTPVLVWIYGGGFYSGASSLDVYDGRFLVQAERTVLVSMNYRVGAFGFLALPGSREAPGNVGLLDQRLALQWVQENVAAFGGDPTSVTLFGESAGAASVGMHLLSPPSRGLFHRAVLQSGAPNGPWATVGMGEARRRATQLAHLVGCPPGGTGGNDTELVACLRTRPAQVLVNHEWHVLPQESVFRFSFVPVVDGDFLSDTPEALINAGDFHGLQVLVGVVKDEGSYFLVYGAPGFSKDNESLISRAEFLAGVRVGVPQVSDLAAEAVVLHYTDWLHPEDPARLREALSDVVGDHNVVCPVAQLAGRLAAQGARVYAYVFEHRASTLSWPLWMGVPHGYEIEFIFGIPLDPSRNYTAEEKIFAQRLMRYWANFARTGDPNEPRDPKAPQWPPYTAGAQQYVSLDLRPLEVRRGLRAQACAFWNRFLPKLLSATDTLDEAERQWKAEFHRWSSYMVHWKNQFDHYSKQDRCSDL

What was measured:
human BuChE = human BuChE (Homo sapiens, UniProt P06276); assay: Esterase activity assay (modified Ellman), BuChE with butyrylthiocholine; type: biochemical; conditions: substrate butyrylthiocholine
Protocol: (§1) The esterase activity of BuChE or AChE was determined by a modification of the method described by Ellman et al. (32), using a buffered 5,5′-dithiobis (2-nitrobenzoic acid) (DTNB) solution. Stock DTNB solution consisted of 10 mM DTNB with 18 mM sodium bicarbonate in 0.1 M phosphate buffer, pH 7.0. Working DTNB solution was prepared by mixing 3.6 mL of 10 mM stock DTNB solution with 96.4 mL of 0.1 M phosphate buffer at pH 8.0. The assay was carried out by mixing 2.7.mL of buffered DTNB working solution (pH 8.0), 0.1 mL of BuChE or AChE in 0.005% aqueous gelatin (1 U/mL), and 0.1 mL of 50% aqueous acetonitrile, or a solution of a 2-pyridone compound of the invention in the same solvent, in a quartz cuvette of 1 cm path-length. Absorbance of this solution was calibrated to zero and the reaction was commenced by adding 0.1 mL of aqueous acetylthiocholine (AcSCh) or butyrylthiocholine (BuSCh) solutions of varying concentration (between 1.9 mM and 15 mM). The final volume was always 3.0 mL. The reactions were carried out at room temperature. The rate of change of absorbance (ΔA/min), reflecting the rate of hydrolysis of BuSCh or AcSCh, was recorded every 5 seconds for a total of 1 minute using a Milton-Roy uv-visible spectrophotometer set at λ=412 nm.
(§2) The slopes of Lineweaver-Burk plots versus Log of inhibitor concentration were used to determine the inhibitor constant Ki.
(§3) The effect of increasing amount of exemplified 2-pyridone compounds (Examples 1 to 10) on the activity of human BuChE and AChE is shown in FIGS. 1 to 10.
(§4) The compounds of Examples 1 to 9 inhibited BuChE and AChE to varying degrees. Graphs of the slopes obtained from Lineweaver-Burk double reciprocal graphs versus log of the concentration of each compound gave the inhibition constant Ki for each compound.

human AChE = human AChE (Homo sapiens, UniProt P22303); assay: Esterase activity assay (modified Ellman), AChE with acetylthiocholine; type: biochemical; conditions: substrate acetylthiocholine
Protocol: as §1, §2, §3, §4

Compound	inhibition of BuChE (in words) (human BuChE)	inhibition of the activity of AChE on acetylthiocholine (in words) (human AChE)
O=C(c1ccc(=O)[nH]c1)N(Cc1ccccc1)Cc1ccccc1 [Example 1, 5-(N,N-Dibenzyl)aminocarbonyl-2-pyridone]	inhibited	inhibited
CC(C)N(C(=O)c1ccc(=O)[nH]c1)C(C)C [Example 2, 5-(N,N-Diisopropyl)aminocarbonyl-2-pyridone]	inhibited	inhibited
O=C(NC1CCCCC1)c1ccc(=O)[nH]c1 [Example 7, 5-(N-Cyclohexyl)aminocarbonyl-2-pyridone]	inhibited	inhibited
